The experiment addresses human insulin receptor (on human IM-9 cells) (human) (UniProt P06213). Description: competition with biotinylated RHI on human IM-9 cells, flow cytometry, 4 C. In general terms: In flow cytometry, cells or beads pass a laser one at a time.

Amino acid sequences for entries named in this document (tags omitted). Residues count along the entry.
UniProt P06213, residues 28-1382: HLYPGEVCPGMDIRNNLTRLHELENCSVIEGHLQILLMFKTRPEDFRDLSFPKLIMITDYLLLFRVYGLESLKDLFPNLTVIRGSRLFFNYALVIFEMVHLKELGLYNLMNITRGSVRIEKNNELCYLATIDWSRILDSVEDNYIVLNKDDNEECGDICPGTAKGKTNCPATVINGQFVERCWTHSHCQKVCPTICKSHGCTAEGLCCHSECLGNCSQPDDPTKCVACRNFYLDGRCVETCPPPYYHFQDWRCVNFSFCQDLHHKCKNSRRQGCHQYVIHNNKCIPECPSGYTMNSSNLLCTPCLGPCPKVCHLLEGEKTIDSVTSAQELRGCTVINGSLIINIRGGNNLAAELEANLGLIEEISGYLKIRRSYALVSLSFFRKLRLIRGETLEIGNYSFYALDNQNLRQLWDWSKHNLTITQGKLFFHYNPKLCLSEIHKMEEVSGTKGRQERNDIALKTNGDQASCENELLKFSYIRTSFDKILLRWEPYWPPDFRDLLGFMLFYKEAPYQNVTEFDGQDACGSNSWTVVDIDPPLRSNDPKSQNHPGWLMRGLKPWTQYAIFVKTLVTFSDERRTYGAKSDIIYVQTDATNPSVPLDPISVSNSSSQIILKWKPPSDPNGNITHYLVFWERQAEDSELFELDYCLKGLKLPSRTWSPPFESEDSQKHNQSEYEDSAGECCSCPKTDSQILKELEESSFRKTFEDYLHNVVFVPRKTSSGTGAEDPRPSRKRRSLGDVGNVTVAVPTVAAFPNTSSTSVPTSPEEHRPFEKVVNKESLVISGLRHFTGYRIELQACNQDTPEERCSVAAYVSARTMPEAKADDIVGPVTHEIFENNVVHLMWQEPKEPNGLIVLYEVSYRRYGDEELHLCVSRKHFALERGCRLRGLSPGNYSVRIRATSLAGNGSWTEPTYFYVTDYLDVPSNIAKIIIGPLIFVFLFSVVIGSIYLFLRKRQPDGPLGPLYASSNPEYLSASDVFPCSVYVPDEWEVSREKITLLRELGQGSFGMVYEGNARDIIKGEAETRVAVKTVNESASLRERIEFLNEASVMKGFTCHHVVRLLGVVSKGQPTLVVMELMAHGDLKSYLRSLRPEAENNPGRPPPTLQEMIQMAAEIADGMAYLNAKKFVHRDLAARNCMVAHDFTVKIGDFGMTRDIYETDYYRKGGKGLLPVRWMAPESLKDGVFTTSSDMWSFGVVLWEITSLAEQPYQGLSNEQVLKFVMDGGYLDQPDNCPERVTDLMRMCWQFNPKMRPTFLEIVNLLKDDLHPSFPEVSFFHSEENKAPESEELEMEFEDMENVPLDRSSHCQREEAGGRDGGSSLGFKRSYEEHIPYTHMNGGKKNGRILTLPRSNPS

No constants are given. Whether binding was seen depends on the method and setting. Some binding calls cover weakened binding; strength is not graded here. Sequences can lack the tags named with a protein.

B1: insulin-Fc fusion protein of SEQ ID NO: 31 (SEQ ID NO: 26 with des hinge D and the mutation cNg-NB138-K; canine IgGB Fc fragment SEQ ID NO: 16) (Fc fusion)
chain: FVNQHLCGSDLVEALALVCGERGFFYTDPTGGGPRRGIVEQCCHSICSLYQLENYCNGGGGAGGGGCPKCPAPEMLGGPSVFIFPPKPKDTLLIARTPEVTCVVVDLDPEDPEVQISWFVDGKQMQTAKTQPREEQFKGTYRVVSVLPIGHQDWLKGKQFTCKVNNKALPSPIERTISKARGQAHQPSVYVLPPSREELSKNTVSLTCLIKDFFPPDIDVEWQSNGQQEPESKYRTTPPQLDEDGSYFLYSKLSVDKSRWQRGDTFICAVMHEALHNHYTQESLSHSPG
notes: Non-glycosylated homodimer made in HEK293 cells; 98.1% homodimer; also called cNg-K with des hinge D
Consider B1, for which the binding result was “binds”.

B2: insulin-Fc fusion protein of SEQ ID NO: 29 (SEQ ID NO: 26 with the mutation cNg-NB139-S; canine IgGB Fc fragment SEQ ID NO: 15) (Fc fusion)
chain: FVNQHLCGSDLVEALALVCGERGFFYTDPTGGGPRRGIVEQCCHSICSLYQLENYCNGGGGAGGGGDCPKCPAPEMLGGPSVFIFPPKPKDTLLIARTPEVTCVVVDLDPEDPEVQISWFVDGKQMQTAKTQPREEQFSGTYRVVSVLPIGHQDWLKGKQFTCKVNNKALPSPIERTISKARGQAHQPSVYVLPPSREELSKNTVSLTCLIKDFFPPDIDVEWQSNGQQEPESKYRTTPPQLDEDGSYFLYSKLSVDKSRWQRGDTFICAVMHEALHNHYTQESLSHSPG
notes: Non-glycosylated homodimer made in HEK293 cells; 98.3% homodimer; also called cNg-S
Regarding B2, the binding entry is given as “binds”.

These data come from US20250163121A1 (AKSTON BIOSCIENCES, published 2025).
